According to US20120164148A1, “Compositions Containing JARID1B Inhibitors and Methods for Treating Cancer” (The Wistar Institute, priority 2009, published 2012):
At least one compound was matched to its structure with a doubt left.

Tested on: WM3734^JARID1Bprom-EGFP cells
Experiment: Drug treatment of WM3734 JARID1Bprom-EGFP cells, flow cytometry of J/EGFP+ subpopulation and viable cells
Format: cell-based, human
Details: 72 hours of treatment, clinically relevant doses; threshold set at 5% (DMSO control)
Protocol: Left panels, Relative enrichment of the J/EGFP+subpopulation after 72 hours of treatment with a BRAF inhibitor (PLX4720), bortezomib (VEL), temozolomide (TMZ), or salinomycin (SAL) as determined by flow cytometry. The threshold (dotted line) for the J/EGFP+ subpopulation was set at 5% (DMSO control) based on JARID1B expression studies. Depicted box plots represent three independently performed experiments with flow cytometric determination of J/EGFP expression beyond the indicated threshold. Right panels, The number of viable cells within the total population was decreasing during drug treatment.
Flow Cytometry and Fluorescence Activated Cell Sorting. For detection of JARID1B promoter-driven EGFP signals, adherent cells were harvested with 0.05% trypsin and spheres were dissociated as described herein. Dead cells were excluded by staining for 7-AAD. After sorting, aliquots were microscopically checked and were cultured for a short-time to exclude disproportional enrichment of debris or apoptotic cells. Fluorescence-activated cell sorting was carried out using a CYTOMATION MOFLO cytometer (DakoCytomation). Flow cytometric detection of surface markers was done according to standard procedures. […] Samples were analyzed using an EPICS XL instrument (Beckman-Coulter). […]

Cn1nnc2c(C(N)=O)ncn2c1=O [temozolomide]
relative enrichment for the J/EGFP+ subpopulation: relative enrichment for the J/EGFP+ subpopulation
